# Measurements published in US10047050B2, “3,4-di-substituted pyridine compound, methods of using and compositions comprising the same” (ARDEA BIOSCIENCES, INC., priority 2011, dated 2018).
# Values joined by “and” are separate entries in the source; they are usually repeats but may differ in a detail not shown here. Identical values can stand only once. This continues a long series; more values of the same kind are listed elsewhere.
# System: serum uric acid
# Test: Multi-dose Phase I clinical trial, serum uric acid (sUA), once daily for 10 days
# Format: in vivo, human
# Details: group 8, 5 mg once daily for 10 days, individual subjects 4-10
# Text: A Phase 1, Randomized, Double-Blind, Placebo-Controlled Study to Evaluate Safety, Tolerability, Pharmacokinetics and Preliminary Food Effect of Multiple Rising Doses of a URAT1 Inhibitor, in Healthy Adult Male Volunteers.
# Fasted subjects receive oral doses of active or placebo, once daily, for 10 days, at the following doses:
# 36 subjects in 3 dose groups, 12 subjects/group, are randomized […] to receive active (9/group) or placebo ([…]). All study procedures are the same regardless of whether subject receives active or placebo. Total duration of subject participation, including screening period, is ˜2-4 weeks, and the total volume of blood collected from each subject during the entire study <500 mL, (less than typically collected during a volunteer blood donation).
# 5 mg, active and placebo, tablets packaged in 35 count HDPE bottles, stored at controlled room temperature (15-30° C.). Placebo tablets are designed to match the active tablets—identical size, form, taste, and color, and containing the same excipients. 1 mg doses were administered as oral solutions.
# Subjects dosed in the morning of Days 1-10 with ˜240 mL of room temp water.
# Urine, serum and plasma samples collected periodically
# PD samples frozen (−20° C.) and stored; all samples from a given subject assayed in a single analytical run.
smiles,measurement,setting,value
CC(C)(Sc1ccncc1-c1ccc(C#N)c2ccccc12)C(=O)O [2-((3-(4-cyanonaphthalen-1-yl)pyridin-4-yl)thio)-2-methylpropanoic acid],% sUA change (from baseline),Time 102,−30.2% and −36.9% and −43.1% and −36.7% and −27.6% and −44.6% and −45.5%
same,Absolute sUA concentration,Time 102,3.7 mg/dL (2×) and 4.1 mg/dL and 3.8 mg/dL and 4.2 mg/dL and 3.1 mg/dL and 3.0 mg/dL
same,% sUA change (from baseline),Time 108,−35.8% and −32.3% and −41.5% and −43.3% and −31.0% and −48.2% and −49.1%
same,Absolute sUA concentration,Time 108,3.4 mg/dL (2×) and 4.4 mg/dL and 3.8 mg/dL and 4.0 mg/dL and 2.9 mg/dL and 2.8 mg/dL
same,% sUA change (from baseline),Time 120,−30.2% and −24.6% and −32.3% and −28.3% and −20.7% and −30.4% and −43.6%
same,Absolute sUA concentration,Time 120,3.7 mg/dL and 4.9 mg/dL and 4.4 mg/dL and 4.3 mg/dL and 4.6 mg/dL and 3.9 mg/dL and 3.1 mg/dL
same,% sUA change (from baseline),Time 144,−37.7% and −32.3% and −38.5% and −38.3% and −24.1% and −35.7% and −40.0%
same,Absolute sUA concentration,Time 144,3.3 mg/dL (2×) and 4.4 mg/dL (2×) and 4.0 mg/dL and 3.7 mg/dL and 3.6 mg/dL
same,% sUA change (from baseline),Time 168,−45.3% and −36.9% and −44.6% and −38.3% and −24.1% and −37.5% and −40.0%
same,Absolute sUA concentration,Time 168,2.9 mg/dL and 4.1 mg/dL and 3.6 mg/dL and 3.7 mg/dL and 4.4 mg/dL and 3.5 mg/dL and 3.3 mg/dL
same,% sUA change (from baseline),Time 192,−39.6% and −32.3% and −41.5% and −40.0% and −17.2% and −35.7% and −43.6%
same,Absolute sUA concentration,Time 192,3.2 mg/dL and 4.4 mg/dL and 3.8 mg/dL and 3.6 mg/dL (2×) and 4.8 mg/dL and 3.1 mg/dL
same,% sUA change (from baseline),Time 216,−43.4% and −32.3% (2×) and −35.0% and −24.1% and −41.1% and −25.5%
same,Absolute sUA concentration,Time 216,3.0 mg/dL and 4.4 mg/dL (3×) and 3.9 mg/dL and 3.3 mg/dL and 4.1 mg/dL
same,% sUA change (from baseline),Time 222 (post dosing),−41.5% and −38.5% and −40.0% and −38.3% and −32.8% and −44.6% and −41.8%
same,Absolute sUA concentration,Time 222 (post dosing),3.1 mg/dL (2×) and 4.0 mg/dL and 3.9 mg/dL (2×) and 3.7 mg/dL and 3.2 mg/dL
same,% sUA change (from baseline),Time 228 (post dosing),−47.2% and −36.9% and −40.0% and −43.3% and −36.2% and −44.6% and −41.8%
same,Absolute sUA concentration,Time 228 (post dosing),2.8 mg/dL and 4.1 mg/dL and 3.9 mg/dL and 3.4 mg/dL and 3.7 mg/dL and 3.1 mg/dL and 3.2 mg/dL
same,% sUA change (from baseline),Time 240 (post dosing),−39.6% and −27.7% and −30.8% and −33.3% and −25.9% and −26.8% and −34.5%
same,Absolute sUA concentration,Time 240 (post dosing),3.2 mg/dL and 4.7 mg/dL and 4.5 mg/dL and 4.0 mg/dL and 4.3 mg/dL and 4.1 mg/dL and 3.6 mg/dL
same,% sUA change (from baseline),Time 246 (post dosing),−43.4% and −32.3% and −38.5% and −36.7% and −29.3% and −30.4% and −40.0%
same,Absolute sUA concentration,Time 246 (post dosing),3.0 mg/dL and 4.4 mg/dL and 4.0 mg/dL and 3.8 mg/dL and 4.1 mg/dL and 3.9 mg/dL and 3.3 mg/dL
same,% sUA change (from baseline),Time 252 (post dosing),−45.3% and −35.4% and −43.1% and −45.0% and −31.0% and −32.1% and −41.8%
same,Absolute sUA concentration,Time 252 (post dosing),2.9 mg/dL and 4.2 mg/dL and 3.7 mg/dL and 3.3 mg/dL and 4.0 mg/dL and 3.8 mg/dL and 3.2 mg/dL
same,% sUA change (from baseline),Time 264 (post dosing),−37.7% and −32.3% and −38.5% and −33.3% and −27.6% and −26.8% and −27.3%
same,Absolute sUA concentration,Time 264 (post dosing),3.3 mg/dL and 4.4 mg/dL and 4.0 mg/dL (3×) and 4.2 mg/dL and 4.1 mg/dL
same,% sUA change (from baseline),Time 270 (post dosing),−22.6% and −23.1% and −32.3% and −25.0% and −13.8% and −16.1% and −27.3%
same,Absolute sUA concentration,Time 270 (post dosing),4.1 mg/dL and 5.0 mg/dL (2×) and 4.4 mg/dL and 4.5 mg/dL and 4.7 mg/dL and 4.0 mg/dL
same,% sUA change (from baseline),Time 288 (post dosing),−28.3% and −24.6% and −33.8% and −31.7% and −17.2% and −14.3% and −23.6%
same,Absolute sUA concentration,Time 288 (post dosing),3.8 mg/dL and 4.9 mg/dL and 4.3 mg/dL and 4.1 mg/dL and 4.8 mg/dL (2×) and 4.2 mg/dL
same,% sUA change (from baseline),Time 312 (post dosing),−13.2% and −13.8% and −27.7% and −18.3% and −5.2% and −7.1% and −10.9%
same,Absolute sUA concentration,Time 312 (post dosing),4.6 mg/dL and 5.6 mg/dL and 4.7 mg/dL and 4.9 mg/dL (2×) and 5.5 mg/dL and 5.2 mg/dL
